Some of the results follow.

For 42 sequences, binding signal results are on record in paper PMC7819943, “Rice protein-binding microarrays: a tool to detect cis-acting elements near promoter regions in rice”.

This assay deals with T1, OsSMF1 (Oryza sativa, UniProt Q6ZLB0 1-436).
T1 sequence: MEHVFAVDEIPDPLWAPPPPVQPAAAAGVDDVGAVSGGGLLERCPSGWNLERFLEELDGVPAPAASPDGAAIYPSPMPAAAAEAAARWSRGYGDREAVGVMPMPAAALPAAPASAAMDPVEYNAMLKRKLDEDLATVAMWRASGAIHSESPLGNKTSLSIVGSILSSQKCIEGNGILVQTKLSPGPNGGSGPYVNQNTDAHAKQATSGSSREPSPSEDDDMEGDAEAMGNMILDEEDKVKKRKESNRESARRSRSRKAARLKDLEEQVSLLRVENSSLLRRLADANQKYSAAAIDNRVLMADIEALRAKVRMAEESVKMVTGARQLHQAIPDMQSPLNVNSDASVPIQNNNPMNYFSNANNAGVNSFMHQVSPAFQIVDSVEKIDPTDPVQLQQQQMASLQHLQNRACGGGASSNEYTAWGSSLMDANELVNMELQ
As to the kind of experiment: protein-binding microarray (RPBM); PBS, 2% BSA, 51.3 ng/ul salmon testes DNA, 50 uM zinc acetate, 200 nM TF, 25 C, 1 h; high values mean tight binding. The note with it: protein: recombinant; tags: N-terminal polyhistidine and DsRed monomer fusion (pET32a); chain copies: 2; label: CyDye5-dUTP incorporated in the synthesized complementary strand; 3' TTTTT single-stranded linker to array surface; dsDNA, one strand shown. A digest of the protocol: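 Binding signal is reported as fluorescence intensity per feature (arbitrary units) from an Axon 4000B scanner. Incubation used 200 nM of each Ni–NTA-purified, N-terminally polyhistidine- and DsRed-fused transcription factor from E. coli BL21-CodonPlus on a double-stranded custom Agilent array for 1 h at 25 °C, with 50 µM zinc acetate in the buffer, followed by washing.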
Regarding “CGACCTGAGGTTGGCGGTCGGCATGACGTCACGGGTGGGACGGAGTCACCTAGTGCAG”, the binding signal was 24200 fluorescence intensity (a.u.).

Take “CCCACAGCGCCGCCCGTCGCCGGCTCAGAAAAGTGAGAGACGGAGTCACCTAGTGCAG”: the binding signal is 5930 fluorescence intensity (a.u.). “ACCAGCCCACTCAACTGCTGACTCACTCAAGTGATGGTAGCGGAGTCACCTAGTGCAG”: the binding signal is 5840 fluorescence intensity (a.u.).

In the case of “TTTGATTATGCTTGTCATTTCCATTCATTTGCTCATATACCGGAGTCACCTAGTGCAG”, the binding signal was 3350 fluorescence intensity (a.u.). As to “GAGATGGAAGGTTTGCTGACACAAAGTGCTGTTCTACGCCCGGAGTCACCTAGTGCAG”, the binding signal was 5050 fluorescence intensity (a.u.).

For “GACTCGCCACCCCACCATCACCACCCAACCCAACCCAACCCGGAGTCACCTAGTGCAG”, the binding signal was 3380 fluorescence intensity (a.u.). With “CTCTCTTTCCATTCTCCCCGGCGATCGAGTAGCCGGCTTCCGGAGTCACCTAGTGCAG” the figure was 3930 fluorescence intensity (a.u.); with “GAATGACACCGTTATGCTCCGCAATGCGCAGTTTATCTTGCGGAGTCACCTAGTGCAG”, 3240 fluorescence intensity (a.u.). As to “AGTAAAACTACCGTCCACGTCACCACCCAACCCCAACGTACGGAGTCACCTAGTGCAG”, the binding signal is 28400 fluorescence intensity (a.u.). Under “GCTTGACAAGCAACCACGTCGATCGACCGTCCGTCGTCACCGGAGTCACCTAGTGCAG” stands 3260 fluorescence intensity (a.u.); under “ATTATCACTGATGAGCCTAGCTATCAACCATAAACCAAACCGGAGTCACCTAGTGCAG”, 20500 fluorescence intensity (a.u.); under “AGCTGCATTGTTGACTCACTAACCCACGACCGGCGGTCCACGGAGTCACCTAGTGCAG”, 7310 fluorescence intensity (a.u.).

As to “AAAACATGAATTTCGAGATGATGACCTACTTGATCCTAGGCGGAGTCACCTAGTGCAG”, the binding signal was 3390 fluorescence intensity (a.u.). Regarding “CCACACACTTATGAACACGAGTACAGCCGATGCCCTATAACGGAGTCACCTAGTGCAG”, the binding signal was 3390 fluorescence intensity (a.u.). For “ATGACAAGACTCACCACTAATTAATTAATGACACACCTGGCGGAGTCACCTAGTGCAG”, the binding signal was 6000 fluorescence intensity (a.u.).

For “CCCTATCCTCTCTTTTCCCCGACGCAAACACACGCTGGCTCGGAGTCACCTAGTGCAG”, the binding signal is 3240 fluorescence intensity (a.u.). With “CCGCCGTCCAACTCTGCCACGGCCGCCACGTACGCGCGCCCGGAGTCACCTAGTGCAG”, the binding signal was 13800 fluorescence intensity (a.u.). On to “TCTCCGGCGACGTTTCTTGATCGTGTTTGTGACTGTGTGCCGGAGTCACCTAGTGCAG”, for which the binding signal was 3420 fluorescence intensity (a.u.). As to “TCTGAGTGGTTCTCTGGGCGTTGTTGGTGCGTTCTTGATCCGGAGTCACCTAGTGCAG”, the binding signal is 3240 fluorescence intensity (a.u.). As to “TAAACAGGGCCCTACTGTCATCACGTCGATGTTGAGTTTACGGAGTCACCTAGTGCAG”, the binding signal is 4070 fluorescence intensity (a.u.).

“AGATGTGTAGCTCCACACAAACCCATCATCACCTTCAACCCGGAGTCACCTAGTGCAG”: the binding signal was 3260 fluorescence intensity (a.u.). With “TTATAGCTAATCCATTGTACATGTCAGCTCTAATACATGTCGGAGTCACCTAGTGCAG” the figure was 5620 fluorescence intensity (a.u.). Turning to “AAAGTTAAATAGAAAGCGCCCCTTATTAATGAGGTGTGGTCGGAGTCACCTAGTGCAG”, the binding signal was 3630 fluorescence intensity (a.u.). For the sequence “GCAATACGAGTCCTGGGTTTTGTTCGACGTGGCACATTGACGGAGTCACCTAGTGCAG”, the binding signal is 11600 fluorescence intensity (a.u.). Consider “CTATCCATCGGTCGGCTCGATCCGTCCTCCGTTTCGCGTGCGGAGTCACCTAGTGCAG”, for which the binding signal was 3150 fluorescence intensity (a.u.).

Turning to “CACACTATACTTCTCCCCGTGACTCGACTAACTCGACTAACGGAGTCACCTAGTGCAG”, the binding signal was 3510 fluorescence intensity (a.u.). Turning to “AATGCCCAGCGATCCTTGTGGGGTGTTGCTGACACGGAGCCGGAGTCACCTAGTGCAG”, the binding signal is 7270 fluorescence intensity (a.u.). With “ATGGGCTGATTCAGTTAAACACATGAGCATTGAGGTGTTTCGGAGTCACCTAGTGCAG” the figure was 3610 fluorescence intensity (a.u.).

Turning to “CATTTGGCCAGCTATAGCTGAGCCTCCCACGTCGCCCGTTCGGAGTCACCTAGTGCAG”, the binding signal was 3350 fluorescence intensity (a.u.).

In the case of “CAGTCCGACTCCACGCAAACCCCTTCGCTGGCCGAAGGCCCGGAGTCACCTAGTGCAG”, the binding signal is 3950 fluorescence intensity (a.u.). With “TAATGGTAGGTGATGTATCCGTTAACAACGAGATGTCTATCGGAGTCACCTAGTGCAG”, the binding signal is 3890 fluorescence intensity (a.u.). With “GATAAATATCTGAGGAGGGGATGGGGCCCAGACGTCAGCCCGGAGTCACCTAGTGCAG” the figure was 3960 fluorescence intensity (a.u.); with “GCCCGCTTGTACTTTGCCTGGGCACCGTGTAACCCAGCTTCGGAGTCACCTAGTGCAG”, 3170 fluorescence intensity (a.u.); with “GCCTTACACTGTCCTTGATCTTGTGTGACCCATCTATATACGGAGTCACCTAGTGCAG”, 3270 fluorescence intensity (a.u.). For “AATGCACTGTAAATTTAAGTGAGAAAATCGAGTAAGAGATCGGAGTCACCTAGTGCAG”, the binding signal is 24900 fluorescence intensity (a.u.). With “ACGAATGCGAGAGTGCCACGTGTCCCCAACGGCTAGTGAGCGGAGTCACCTAGTGCAG” the figure was 14800 fluorescence intensity (a.u.). With “GGCTGCTCATTGTCGTCTCATCTGGGCTTTTCAATGGGCTCGGAGTCACCTAGTGCAG”, the binding signal was 53700 fluorescence intensity (a.u.).

In the case of “GGAGACGCCGTCGACGACATGCCACGACTTGGCGTCGGGGCGGAGTCACCTAGTGCAG”, the binding signal was 3860 fluorescence intensity (a.u.). With “ATACTACCACTAGTGCATGCCCTCGTGTCACTGCATGTGGCGGAGTCACCTAGTGCAG” the figure was 6710 fluorescence intensity (a.u.); with “AGTATTGATCTGGCGATCTGACTGTGGTTATCTTGCTATCCGGAGTCACCTAGTGCAG”, 4850 fluorescence intensity (a.u.). Under “CCACGCCCACACGCCACACGTGTGAAACCGCAACGTGGTGCGGAGTCACCTAGTGCAG” stands 5810 fluorescence intensity (a.u.). Under “ACACAGTAGCATGATGAGATTAGCAGTACATGACGAGTTCCGGAGTCACCTAGTGCAG” stands 3150 fluorescence intensity (a.u.).
